Some of the results follow. Shown are side measurements of this screen, not its main read-out; they come without a call. Compounds called inactive in the main read-out are mostly missing here. Words in brackets tell the shape of the fitted curve; partial curves, single points and poor fits give uncertain potencies.
Assay: qHTS Assay for Modulators of Lamin A Splicing
Settings: HeLa LMNA splicing GFP/RFP minigene ratio, 48 h
Procedure, shortened: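 S3 HeLa stable clones carrying a lamin A-EGFP splicing minigene plus DsRed2 were seeded at 600 cells/well in Opti-MEM with 2% FBS, pin-dosed and incubated 48 h at 37°C. Acumen cytometry (488 nm) gave the GFP/RFP total-intensity ratio.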

[1] = measured here: RFP viability control channel
[2] = measured here: GFP splicing reporter channel

SMILES | AC50 [1] | AC50 [2]
Cc1cccc(N2C(=O)CS(=O)(=O)C23C(=O)N(C)c2ccccc23)c1 (stereo not drawn) | 2.24 µM [rising, full curve] | 
Cc1c(C#N)c(N)nc2c3c(sc12)NC(=O)CC3c1ccc(Cl)cc1 (stereo not drawn) | 35.5 µM [falling, single point] | 35.5 µM [falling, single point]
O=c1[nH]c(=O)c2nc3c4ccccc4c4ccccc4c3nc2[nH]1 | 25.1 µM [falling, partial curve] | 
CCNC(=O)Cn1c(=O)c(=O)n(Cc2ccccc2)c2ccc(Cl)cc21 | 35.5 µM [rising, single point] | 
O=C1CCC(=O)N1c1ccc(S(=O)(=O)N2CCCC2)cc1 | 0.00316 µM [falling, full curve, poor fit] | 0.00447 µM [falling, full curve, poor fit]
CCOC(=O)c1nc(N2CCN(C(=O)OCC)CC2)c2c3c(sc2n1)CCCC3 | 35.5 µM [rising, single point] | 
CCCN(CC1CC1)c1nc(C)nc(Nc2c(Cl)cc(Cl)cc2Cl)c1Cl | 35.5 µM [rising, single point] | 6.31 µM [falling, partial curve, poor fit]
COc1ccc(/C=C(/C#N)c2cccnc2)cc1OC | 11.2 µM [rising, single point] | 11.2 µM [falling, partial curve, poor fit]
O=c1cc(-c2cccs2)oc2ccc(Cl)cc12 | 0.501 µM [falling, full curve] | 0.501 µM [falling, full curve, poor fit]
Cc1ccc(S(=O)(=O)Oc2ccccc2/C=N/O)cc1 | 17.8 µM [rising, partial curve, poor fit] | 1.41 µM [rising, full curve, poor fit]
Cc1cc(C(=O)N/N=C/c2ccccn2)n[nH]1 | 4.47 µM [falling, partial curve] | 2.82 µM [falling, partial curve, poor fit]
COc1ccccc1-c1nccc(NCc2cccs2)n1 |  | 11.2 µM [falling, partial curve, poor fit]
CN(C)c1ccc(CNC(=O)CCC(=O)N2Cc3ccccc3Oc3ncccc32)cc1 | 5.62 µM [falling, partial curve, poor fit] | 
CCC(C(=O)Nc1cc(C(=O)Nc2cc(C)ccn2)ccc1Cl)c1ccccc1 (stereo not drawn) |  | 14.1 µM [rising, single point]
CSc1nc(N2CCOCC2)c2c3c(sc2n1)CCCC3 | 15.8 µM [rising, single point] | 14.1 µM [rising, single point]

As a short view, some entries already given:
SMILES | AC50 [1] | AC50 [2]
Cc1c(C#N)c(N)nc2c3c(sc12)NC(=O)CC3c1ccc(Cl)cc1 (stereo not drawn) | 35.5 µM [falling, single point] | 35.5 µM [falling, single point]
O=c1[nH]c(=O)c2nc3c4ccccc4c4ccccc4c3nc2[nH]1 | 25.1 µM [falling, partial curve] | 
